Drug key:
XAV939, 2 µM: Oc1nc(-c2ccc(C(F)(F)F)cc2)nc2c1CSCC2
temozolomide, 2 µM: Cn1nnc2c(C(N)=O)ncn2c1=O
etoposide, 0.02 µM: COc1cc([C@@H]2c3cc4c(cc3[C@@H](O[C@@H]3O[C@@H]5CO[C@@H](C)O[C@H]5[C@H](O)[C@H]3O)[C@H]3COC(=O)[C@H]23)OCO4)cc(OC)c1O
pioglitazone, 2 µM: CCc1ccc(CCOc2ccc(CC3SC(=O)NC3=O)cc2)nc1 (stereo unspecified)
veliparib, 1.4 µM: C[C@]1(c2nc3c(C(N)=O)cccc3[nH]2)CCCN1
GW9662, 2 µM: O=C(Nc1ccccc1)c1cc([N+](=O)[O-])ccc1Cl
sunitinib, 0.4 µM: CCN(CC)CCNC(=O)c1c(C)[nH]c(/C=C2\C(=O)Nc3ccc(F)cc32)c1C
selumetinib, 0.015 µM: Cn1cnc2c(F)c(Nc3ccc(Br)cc3Cl)c(C(=O)NOCCO)cc21

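The test systems are human melanoma cell lines, treated with a pair of drugs for 72 h and then stained and imaged. The read-out is cell count (nuclei) in % of the DMSO control; lower values mean stronger growth inhibition or killing. Every drug was used at one fixed concentration, the lower of two screened (a fifth of the higher). The file gives one value for each pair and line, without errors, so small differences may be noise.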 This is part of the screen, not chosen by result. A dash means that no value is listed here.

| # | Combination | COLO 792 | LB2518-MEL | G-361 | C32 | A101D | IST-MEL1 | COLO 800 | A375 | A2058 | IPC-298 |
|---|---|---|---|---|---|---|---|---|---|---|---|
| 1 | pioglitazone + temozolomide | 86.4 | 101 | 106 | 129 | 103 | 105 | 84.7 | 88.4 | 85.0 | 90.9 |
| 2 | selumetinib + GW9662 | 90.1 | 55.0 | 91.6 | 95.3 | 93.0 | 103 | 76.6 | - | 111 | 71.4 |
| 3 | GW9662 + XAV939 | 86.0 | 101 | 85.5 | 88.5 | 96.0 | 105 | 145 | 100 | 89.1 | 101 |
| 4 | pioglitazone + GW9662 | 105 | 112 | 110 | 95.9 | 118 | 106 | 82.6 | 91.0 | 94.8 | 100 |
| 5 | XAV939 + pioglitazone | 72.3 | 96.6 | 75.1 | 91.3 | 95.7 | 101 | 125 | 94.0 | 86.8 | 106 |
| 6 | veliparib + etoposide | 96.4 | 110 | 87.4 | 106 | 91.1 | 90.4 | 50.4 | - | 80.0 | 92.5 |
| 7 | etoposide + selumetinib | 82.9 | 61.2 | 88.3 | 86.5 | 94.8 | 89.0 | 78.6 | 82.6 | 99.7 | 74.9 |
| 8 | temozolomide + GW9662 | 94.4 | 101 | 118 | 98.3 | 98.8 | 91.9 | 80.8 | 97.8 | 78.3 | 108 |
| 9 | temozolomide + etoposide | 97.9 | - | 102 | 99.4 | 97.2 | 96.0 | 81.7 | 99.9 | 73.4 | 93.6 |
| 10 | sunitinib + etoposide | 86.5 | 114 | - | 103 | 103 | 99.5 | 110 | 89.1 | 91.3 | 94.2 |
| 11 | XAV939 + selumetinib | 59.7 | 63.0 | 78.5 | 91.2 | 89.1 | 91.4 | 116 | - | 80.2 | 66.2 |
| 12 | GW9662 + veliparib | 90.0 | 91.4 | 106 | 108 | 91.5 | 98.1 | 82.8 | 91.8 | 90.4 | 104 |
| 13 | temozolomide + XAV939 | 81.0 | - | 105 | 105 | 106 | 100 | 107 | 104 | 71.3 | 100 |
| 14 | veliparib + selumetinib | 77.9 | 52.6 | 85.1 | 81.4 | 82.1 | 92.7 | 64.8 | 74.5 | 109 | 73.1 |
| 15 | sunitinib + pioglitazone | 104 | 117 | 102 | 86.0 | 88.6 | 101 | 76.4 | - | 106 | 106 |
| 16 | GW9662 + sunitinib | 86.8 | - | 103 | 91.4 | 78.3 | 110 | 101 | - | 112 | 105 |
| 17 | pioglitazone + veliparib | 103 | 82.5 | 111 | 85.2 | 102 | 104 | 67.7 | 92.8 | 108 | 103 |
| 18 | veliparib + sunitinib | 90.8 | 86.1 | 92.9 | 98.0 | 82.6 | 106 | 94.6 | 82.6 | 96.5 | 94.7 |
| 19 | veliparib + XAV939 | 87.5 | 87.8 | 91.6 | 94.8 | 81.2 | 89.2 | 82.5 | 88.4 | 68.6 | 94.8 |
| 20 | pioglitazone + selumetinib | 86.7 | 58.8 | 93.1 | 83.5 | 92.1 | 93.3 | 83.4 | - | 105 | 65.1 |
| 21 | pioglitazone + etoposide | 90.9 | 109 | 102 | 85.6 | 82.2 | 104 | 87.9 | - | 97.7 | 102 |
| 22 | temozolomide + veliparib | 81.9 | 88.8 | 86.5 | 103 | 102 | 82.8 | 90.2 | 68.1 | 76.9 | 99.0 |
| 23 | temozolomide + selumetinib | 85.1 | 53.1 | 89.2 | 90.6 | 92.1 | 90.3 | 103 | 81.5 | 94.4 | 60.0 |
| 24 | XAV939 + etoposide | 76.7 | 90.6 | 101 | 102 | 71.9 | 90.6 | 120 | - | 80.6 | 92.5 |
| 25 | sunitinib + XAV939 | 62.9 | 93.5 | 111 | 100 | 82.5 | 98.4 | 82.1 | - | 93.8 | 92.0 |
| 26 | GW9662 + etoposide | 94.1 | 90.8 | 95.1 | 87.2 | 97.4 | 93.5 | 93.9 | - | 92.0 | 90.5 |
| 27 | sunitinib + selumetinib | 93.1 | 75.8 | 98.3 | 73.1 | 75.0 | 97.2 | 77.9 | 114 | 96.6 | 75.1 |

The first 3 entries again:

Combination,COLO 792,LB2518-MEL,G-361,C32,A101D,IST-MEL1,COLO 800,A375,A2058,IPC-298
pioglitazone + temozolomide,86.4,101,106,129,103,105,84.7,88.4,85.0,90.9
selumetinib + GW9662,90.1,55.0,91.6,95.3,93.0,103,76.6,-,111,71.4
GW9662 + XAV939,86.0,101,85.5,88.5,96.0,105,145,100,89.1,101

From a melanoma drug combination screen (doi:10.1371/journal.pone.0140310); values rounded.